This note sets out measurements from patent US4128638A (ICI Australia Limited, priority 1975, dated 1978).

For part of these data: Strings that start with PEPTIDE1 are HELM notation: dots part the residues, brackets hold end groups and non-standard residues.

Data set [1] can be described thus: general procedure: Boc solid-phase peptide synthesis; PCTFE-g-benzhydrylaminostyrene resin; PCTFE-g-chloromethylstyrene resin for alkylamides; dicyclohexylcarbodiimide. The settings on record: whole synthesis, scale 0.5 mmole.
The nature of data set [2]: general procedure: Boc solid-phase peptide synthesis; PCTFE-g-benzhydrylaminostyrene resin; dicyclohexylcarbodiimide. To be noted: whole synthesis, scale 0.5 mmole.

In turn, “PEPTIDE1{[pGlu].H.W.S.Y.G.L.R.P.[Sar].[am]}$$$$V2.0” showed an isolated mass in data set [1] of 48 mg.

In data set [2], “L-Pyroglutamyl-L-histidyl-L-tryptophanyl-L-seryl-L-tyrosyl-β-alanyl-L- leucyl-L-arginyl-L-prolyl-glycinamide” returned a crude mass of 387 mg and an isolated mass of 138 mg.

In data set [1], “L-Pyroglutamyl-L-histidyl-L-tryptophanyl-L-seryl-L-tyrosyl-β-alanyl-L- leucyl-L-arginyl-L-prolinamide” gave a crude mass of 590 mg and an isolated mass of 51 mg. Turning to “L-Pyroglutamyl-L-histidyl-L-tryptophanyl-L-seryl-L-tyrosylglycyl-L-leucyl-L-arginyl-L-prolyl-β-alaninamide”, the isolated mass in data set [1] is 98 mg.
